Three molecules from PMC3507953 can be followed below.

Experiment [1] has as its target T1, Myc-Ebf1 (HeLa) (UniProt Q07802).
T1 sequence: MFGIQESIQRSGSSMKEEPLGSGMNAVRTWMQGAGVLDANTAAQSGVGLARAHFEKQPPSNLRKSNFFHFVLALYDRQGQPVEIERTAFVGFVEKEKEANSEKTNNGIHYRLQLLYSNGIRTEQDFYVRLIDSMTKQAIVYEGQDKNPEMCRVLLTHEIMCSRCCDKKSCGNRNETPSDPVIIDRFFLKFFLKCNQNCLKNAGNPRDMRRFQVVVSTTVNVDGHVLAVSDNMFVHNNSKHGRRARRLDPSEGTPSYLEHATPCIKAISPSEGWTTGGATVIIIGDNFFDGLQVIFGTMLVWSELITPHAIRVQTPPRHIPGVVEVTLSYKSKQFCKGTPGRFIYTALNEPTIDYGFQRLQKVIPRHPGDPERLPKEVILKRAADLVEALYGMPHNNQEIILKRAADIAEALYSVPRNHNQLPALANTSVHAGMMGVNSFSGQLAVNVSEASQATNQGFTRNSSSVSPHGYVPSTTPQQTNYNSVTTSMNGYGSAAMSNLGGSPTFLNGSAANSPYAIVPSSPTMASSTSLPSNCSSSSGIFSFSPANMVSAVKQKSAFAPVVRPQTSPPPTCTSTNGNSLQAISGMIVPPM
Put plainly: co-IP; HeLa cells transfected with HA-Zfp521 and Myc-Ebf1, harvested after 24 h; immunoprecipitation with anti-Myc beads, Western blot with anti-HA or anti-Myc; Triton X lysis buffer (50 mM Tris-HCl pH 7.4, 150 mM NaCl, 1% Triton X-100, 5 mM EDTA). (A western blot detects proteins with antibodies after separation by electrophoresis.)

The target of experiment [2] is T2, early B cell factor 1 (Ebf1) (native, 3T3-L1 preadipocytes) (mouse (endogenous in 3T3-L1)) (UniProt Q07802).
T2 sequence: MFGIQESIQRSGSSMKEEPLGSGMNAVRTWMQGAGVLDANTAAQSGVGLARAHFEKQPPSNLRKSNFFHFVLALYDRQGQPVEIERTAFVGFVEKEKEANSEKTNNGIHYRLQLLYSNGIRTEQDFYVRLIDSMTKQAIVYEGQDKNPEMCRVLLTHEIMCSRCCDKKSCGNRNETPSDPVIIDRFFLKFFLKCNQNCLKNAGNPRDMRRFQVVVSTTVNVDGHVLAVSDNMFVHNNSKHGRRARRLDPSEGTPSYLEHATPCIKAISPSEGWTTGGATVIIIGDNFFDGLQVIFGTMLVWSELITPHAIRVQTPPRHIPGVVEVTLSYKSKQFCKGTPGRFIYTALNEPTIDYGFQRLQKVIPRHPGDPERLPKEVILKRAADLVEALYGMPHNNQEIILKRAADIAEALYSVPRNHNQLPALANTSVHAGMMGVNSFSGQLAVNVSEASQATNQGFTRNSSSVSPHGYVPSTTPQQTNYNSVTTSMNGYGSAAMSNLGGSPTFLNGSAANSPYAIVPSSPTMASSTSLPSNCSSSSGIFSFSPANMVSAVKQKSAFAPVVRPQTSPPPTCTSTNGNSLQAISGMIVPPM
Put plainly: co-IP; native proteins of 3T3-L1 preadipocytes; endogenous Ebf1 immunoprecipitated with anti-Ebf1 beads, blotted with normal goat IgG or anti-Zfp521.

The target in experiment [3] is T3, Myc-Ebf1 (3T3-L1) (UniProt Q07802).
T3 sequence: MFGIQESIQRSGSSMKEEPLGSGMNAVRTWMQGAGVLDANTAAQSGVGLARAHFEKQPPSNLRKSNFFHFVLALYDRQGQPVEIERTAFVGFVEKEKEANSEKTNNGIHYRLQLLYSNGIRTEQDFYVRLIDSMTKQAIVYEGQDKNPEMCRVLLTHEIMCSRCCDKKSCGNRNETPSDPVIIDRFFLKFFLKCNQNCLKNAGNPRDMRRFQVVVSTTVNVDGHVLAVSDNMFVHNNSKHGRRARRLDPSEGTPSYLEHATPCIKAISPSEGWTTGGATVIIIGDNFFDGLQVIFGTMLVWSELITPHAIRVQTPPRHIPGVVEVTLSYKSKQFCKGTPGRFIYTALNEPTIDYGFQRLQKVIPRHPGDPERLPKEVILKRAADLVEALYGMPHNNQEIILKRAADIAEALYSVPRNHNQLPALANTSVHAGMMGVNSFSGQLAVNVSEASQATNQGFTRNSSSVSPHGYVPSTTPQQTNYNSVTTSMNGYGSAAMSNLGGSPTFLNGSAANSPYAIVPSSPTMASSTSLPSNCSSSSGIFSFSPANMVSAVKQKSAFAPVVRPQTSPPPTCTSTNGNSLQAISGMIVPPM
Put plainly: co-IP; 3T3-L1 preadipocytes transfected with Myc-Ebf1 and Flag-Zfp521WT or Flag-Zfp521Δ27-30, harvested after 24 h; immunoprecipitation with anti-Myc beads, blots with anti-Zfp521, anti-Flag or anti-Myc.

No constants are given. Whether binding was seen depends on the method and setting. In cells and extracts the contact can be indirect. Some entries that bind do so weakly or less than the wild type. For part of these data: Where a sequence is shown, tags or fusion partners need not be part of it.

B1: HA-Zfp521 (HeLa) (protein, UniProt Q6KAS7 1-1311)
chain: MSRRKQAKPRSLKDPNCKLEDKIEDGEAVDCKKRPEDGEELEEDAVHSCDSCLQVFESLSDITEHKIHQCQLTDGVDVEDDPSCSWPASSPSSKDQTSPSHGEGCDFGEEEGGPGLPYPCQFCDKSFSRLSYLKHHEQSHSDKLPFKCTYCSRLFKHKRSRDRHIKLHTGDKKYHCSECDAAFSRSDHLKIHLKTHTSNKPYKCAVCRRGFLSSSSLHGHMQVHERNKDGSQSGSRMEDWKMKDTQKCSQCEEGFDFPEDLQKHIAECHPECSPNEDRAALQCMYCHELFVEETSLMNHIEQVHGGEKKNSCSICSESFLTVEELYSHMDSHQQPESCNHSNSPSLVTVGYTSVSSTTPDSNLSVDSSTMVEAAPPIPKSRGRKRAAQQTSDMTGPSSKQAKVTYSCIYCNKQLFSSLAVLQIHLKTMHLDKPEQAHICQYCLEVLPSLYNLNEHLKQVHEAQDPGLIVSAMPAIVYQCNFCSEVVNDLNTLQEHIRCSHGFANPAAKDSNAFFCPHCYMGFLTDSSLEEHIRQVHCDLSGSRFGSPVLGTPKEPVVEVYSCSYCTNSPIFNSVLKLNKHIKENHKNIPLALNYIHNGKKSRALSPLSPVAIEQTTLKMMQTVGGGPARASGEYICNQCGAKYTSLDSFQTHLKTHLDTVLPKLTCPQCNKEFPNQESLLKHVTIHFMITSTYYICESCDKQFTSVDDLQKHLLDMHTFVFFRCTLCQEVFDSKVSIQLHLAVKHSNEKKVYRCTSCNWDFRNETDLQLHVKHNHLENQGKVHKCIFCGESFGTEVELQCHITTHSKKYNCRFCSKAFHAVILLEKHLREKHCVFETKTPNCGTNGASEQVQKEEAELQTLLTNSQESHNSHDGSEEDVDSSEPMYGCDICGAAYTMETLLQNHQLRDHNIRPGESAIVKKKAELIKGNYKCNVCSRTFFSENGLREHMQTHLGPVKHYMCPICGERFPSLLTLTEHKVTHSKSLDTGNCRICKMPLQSEEEFLEHCQMHPDLRNSLTGFRCVVCMQTVTSTLELKIHGTFHMQKTGNGSSVQTTGRGQHVQKLYKCASCLKEFRSKQDLVKLDINGLPYGLCAGCVNLSKSSSPGLSLPPGASRPGLGQNESLSAMEGKGKAGGLKTRCSSCNVKFESESELQNHIQTVHRELVPDANSTQLKTPQVSPMPRISPSQSDEKKTYQCIKCQMVFYNEWDIQVHVANHMIDEGLNHECKLCSQTFDSPAKLQCHLIEHSFEGMGGTFKCPVCFTVFVQANKLQQHIFSAHGQEDKIYDCTQCPQKFFFQTELQNHTMTQHSS
Consider B1, for which the binding result in experiment [1] is “binds”.

B2: Zfp521 (native, 3T3-L1 preadipocytes) (protein, UniProt Q6KAS7 1-1311)
chain: MSRRKQAKPRSLKDPNCKLEDKIEDGEAVDCKKRPEDGEELEEDAVHSCDSCLQVFESLSDITEHKIHQCQLTDGVDVEDDPSCSWPASSPSSKDQTSPSHGEGCDFGEEEGGPGLPYPCQFCDKSFSRLSYLKHHEQSHSDKLPFKCTYCSRLFKHKRSRDRHIKLHTGDKKYHCSECDAAFSRSDHLKIHLKTHTSNKPYKCAVCRRGFLSSSSLHGHMQVHERNKDGSQSGSRMEDWKMKDTQKCSQCEEGFDFPEDLQKHIAECHPECSPNEDRAALQCMYCHELFVEETSLMNHIEQVHGGEKKNSCSICSESFLTVEELYSHMDSHQQPESCNHSNSPSLVTVGYTSVSSTTPDSNLSVDSSTMVEAAPPIPKSRGRKRAAQQTSDMTGPSSKQAKVTYSCIYCNKQLFSSLAVLQIHLKTMHLDKPEQAHICQYCLEVLPSLYNLNEHLKQVHEAQDPGLIVSAMPAIVYQCNFCSEVVNDLNTLQEHIRCSHGFANPAAKDSNAFFCPHCYMGFLTDSSLEEHIRQVHCDLSGSRFGSPVLGTPKEPVVEVYSCSYCTNSPIFNSVLKLNKHIKENHKNIPLALNYIHNGKKSRALSPLSPVAIEQTTLKMMQTVGGGPARASGEYICNQCGAKYTSLDSFQTHLKTHLDTVLPKLTCPQCNKEFPNQESLLKHVTIHFMITSTYYICESCDKQFTSVDDLQKHLLDMHTFVFFRCTLCQEVFDSKVSIQLHLAVKHSNEKKVYRCTSCNWDFRNETDLQLHVKHNHLENQGKVHKCIFCGESFGTEVELQCHITTHSKKYNCRFCSKAFHAVILLEKHLREKHCVFETKTPNCGTNGASEQVQKEEAELQTLLTNSQESHNSHDGSEEDVDSSEPMYGCDICGAAYTMETLLQNHQLRDHNIRPGESAIVKKKAELIKGNYKCNVCSRTFFSENGLREHMQTHLGPVKHYMCPICGERFPSLLTLTEHKVTHSKSLDTGNCRICKMPLQSEEEFLEHCQMHPDLRNSLTGFRCVVCMQTVTSTLELKIHGTFHMQKTGNGSSVQTTGRGQHVQKLYKCASCLKEFRSKQDLVKLDINGLPYGLCAGCVNLSKSSSPGLSLPPGASRPGLGQNESLSAMEGKGKAGGLKTRCSSCNVKFESESELQNHIQTVHRELVPDANSTQLKTPQVSPMPRISPSQSDEKKTYQCIKCQMVFYNEWDIQVHVANHMIDEGLNHECKLCSQTFDSPAKLQCHLIEHSFEGMGGTFKCPVCFTVFVQANKLQQHIFSAHGQEDKIYDCTQCPQKFFFQTELQNHTMTQHSS
Turning to B2, the binding result in experiment [2] was “binds”.

B3: Flag-Zfp521WT (3T3-L1) (protein, UniProt Q6KAS7 1-1311)
chain: MSRRKQAKPRSLKDPNCKLEDKIEDGEAVDCKKRPEDGEELEEDAVHSCDSCLQVFESLSDITEHKIHQCQLTDGVDVEDDPSCSWPASSPSSKDQTSPSHGEGCDFGEEEGGPGLPYPCQFCDKSFSRLSYLKHHEQSHSDKLPFKCTYCSRLFKHKRSRDRHIKLHTGDKKYHCSECDAAFSRSDHLKIHLKTHTSNKPYKCAVCRRGFLSSSSLHGHMQVHERNKDGSQSGSRMEDWKMKDTQKCSQCEEGFDFPEDLQKHIAECHPECSPNEDRAALQCMYCHELFVEETSLMNHIEQVHGGEKKNSCSICSESFLTVEELYSHMDSHQQPESCNHSNSPSLVTVGYTSVSSTTPDSNLSVDSSTMVEAAPPIPKSRGRKRAAQQTSDMTGPSSKQAKVTYSCIYCNKQLFSSLAVLQIHLKTMHLDKPEQAHICQYCLEVLPSLYNLNEHLKQVHEAQDPGLIVSAMPAIVYQCNFCSEVVNDLNTLQEHIRCSHGFANPAAKDSNAFFCPHCYMGFLTDSSLEEHIRQVHCDLSGSRFGSPVLGTPKEPVVEVYSCSYCTNSPIFNSVLKLNKHIKENHKNIPLALNYIHNGKKSRALSPLSPVAIEQTTLKMMQTVGGGPARASGEYICNQCGAKYTSLDSFQTHLKTHLDTVLPKLTCPQCNKEFPNQESLLKHVTIHFMITSTYYICESCDKQFTSVDDLQKHLLDMHTFVFFRCTLCQEVFDSKVSIQLHLAVKHSNEKKVYRCTSCNWDFRNETDLQLHVKHNHLENQGKVHKCIFCGESFGTEVELQCHITTHSKKYNCRFCSKAFHAVILLEKHLREKHCVFETKTPNCGTNGASEQVQKEEAELQTLLTNSQESHNSHDGSEEDVDSSEPMYGCDICGAAYTMETLLQNHQLRDHNIRPGESAIVKKKAELIKGNYKCNVCSRTFFSENGLREHMQTHLGPVKHYMCPICGERFPSLLTLTEHKVTHSKSLDTGNCRICKMPLQSEEEFLEHCQMHPDLRNSLTGFRCVVCMQTVTSTLELKIHGTFHMQKTGNGSSVQTTGRGQHVQKLYKCASCLKEFRSKQDLVKLDINGLPYGLCAGCVNLSKSSSPGLSLPPGASRPGLGQNESLSAMEGKGKAGGLKTRCSSCNVKFESESELQNHIQTVHRELVPDANSTQLKTPQVSPMPRISPSQSDEKKTYQCIKCQMVFYNEWDIQVHVANHMIDEGLNHECKLCSQTFDSPAKLQCHLIEHSFEGMGGTFKCPVCFTVFVQANKLQQHIFSAHGQEDKIYDCTQCPQKFFFQTELQNHTMTQHSS
Consider B3, for which, in experiment [3], the binding entry is “binds”.
